Results published in PubChem BioAssay AID504847 (National Center for Advancing Translational Sciences (NCATS), 2011).
Values joined by “and” are separate entries in the source; they are usually repeats but may differ in a detail not shown here. Equal entries are not always repeated. Screen size: about 400,000 compounds; about 3,700 (0.93%) were called active. Inconclusive results, whose numbers are uncertain, are shown with a selection of clear calls. The call rests on the fitted dose curve; in most records, active means well fitted inhibition curve with a large enough effect; inconclusive means small, poorly fitted or top-dose-only effect, or another doubt; inactive means no such curve, though single readings can be large or run the other way. Potencies beside an inconclusive call are fits to weak or partial responses and may not hold up.

The chains behind the UniProt entries cited, without tags or fusion partners. Where a name states a change or a piece, a line headed by the entry shows the natural chain unless it says otherwise.
UniProt P11473: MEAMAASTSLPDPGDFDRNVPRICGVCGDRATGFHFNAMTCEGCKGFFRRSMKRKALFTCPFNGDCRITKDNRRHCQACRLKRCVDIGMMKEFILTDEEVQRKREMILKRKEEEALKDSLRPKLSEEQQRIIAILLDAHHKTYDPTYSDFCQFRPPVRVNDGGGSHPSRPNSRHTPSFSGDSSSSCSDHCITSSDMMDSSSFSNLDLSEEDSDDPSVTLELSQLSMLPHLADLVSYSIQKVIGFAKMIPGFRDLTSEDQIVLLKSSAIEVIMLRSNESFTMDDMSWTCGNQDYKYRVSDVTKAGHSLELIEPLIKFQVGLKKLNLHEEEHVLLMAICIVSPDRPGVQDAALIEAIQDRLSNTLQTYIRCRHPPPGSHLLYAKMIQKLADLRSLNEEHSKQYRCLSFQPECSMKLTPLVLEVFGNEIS

Target: Vitamin D3 receptor (Homo sapiens) (UniProt P11473)
Assay: Inhibitors of the vitamin D receptor (VDR): qHTS
Details: VDR-SRC2-3 peptide fluorescence polarization, 2 h; max response, negative = inhibition: stronger effect = lower value
Summary of the method: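 FP read-out; VDR + SRC2-3 coactivator peptide; 23 nl compound by pintool; 2 h RT incubation; reagents held at 4 deg C, protected from light.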
On the % scale 0 is the no-effect control and ±100 the full control effect; potency means the concentration at half of the fitted maximal effect.

| SMILES | max response, negative = inhibition | Potency |
| --- | --- | --- |
| CCOc1cccc(CN2CCCC(C(=O)c3cc(Cl)ccc3OC)C2)c1O (configuration not stated) | inactive: -2.57% |  |
| COC(=O)c1ccc(N2CCC(C)CC2)c(N)c1 |  | inconclusive: 70.8 µM [inhibitor, single point] |
| CC(C)c1c(C(=O)Nc2ccccc2)c(-c2ccccc2)c(-c2ccc(F)cc2)n1CC[C@@H](O)C[C@@H](O)CC(=O)O |  | inconclusive: 25.1 µM [inhibitor, partial curve, poor fit] |
| N#Cc1c(Nc2ccccc2Cl)s[nH]c1=O |  | inconclusive: 7.94 µM [inhibitor, full curve, poor fit] |
| O=C(Nc1ccc2c(c1)OCCO2)c1cc(-c2ccccc2)nc2ccccc12 | inactive: 5.45% |  |
| O=S(=O)(c1ccc(-c2n[nH]c(=S)o2)cc1)N1CCCCC1 | inactive: 11.3% |  |
| CCCc1ccc(C2=Nn3c(nnc3C(C)C)SC2)cc1 |  | active: 79.4 µM |
| COc1cccc(C(=O)OCc2cc(=O)oc3c(C)c(C)ccc23)c1OC |  | inconclusive: 89.1 µM [inhibitor, partial curve, poor fit] |
| O=C(NCc1cccnc1)c1cc2ccccc2oc1=O | inactive: -9.28% |  |
| COc1ccc(-c2nc(-c3ccccc3)c(NC(C)C)o2)cc1 |  | inconclusive: 70.8 µM [inhibitor, single point] |
| CN(C)c1ccc(/C=N/NC(=O)c2nonc2N)cc1[N+](=O)[O-] | inactive: -16.9% |  |
| Cc1ccc(NS(=O)(=O)c2ccc(C)c(C(=O)Nc3ccc(S(=O)(=O)Nc4onc(C)c4C)cc3)c2)cc1 |  | inconclusive: 79.4 µM [inhibitor, single point] |
| O=C(CNC(=O)C1CCCCC1)OCn1nnc2ccccc2c1=O |  | inconclusive: 100 µM [inhibitor, single point] |
| CC(OC(=O)c1cc(O)c2ccccc2c1O)C(=O)Nc1ccc(C(N)=O)cc1 (configuration not stated) |  | inconclusive: 44.7 µM [inhibitor, partial curve] |
| CNC(=O)Nc1cc(C)nn1C |  | inconclusive: 31.6 µM [inhibitor, single point] |
| CS(=O)(=O)c1nc(-c2ccc(F)cc2)cc(C(F)(F)F)n1 |  | active: 7.94 µM |
| COc1ccc(Cl)cc1-c1ccc(C(=O)O)o1 |  | active: 112 µM |
| CCN(C(=O)Cn1c(=O)oc2ccccc21)c1cccc(C)c1 | inactive: -27% |  |
| CCOc1ccc(NC(=S)Nc2ccc3nsnc3c2)cc1 |  | active: 79.4 µM |
| Cc1oc2c(c1C(=O)Nc1ccccc1Br)C1=NCCN1C=N2 | inactive: 10.5% |  |
| O=C(Nc1ccc(-c2nc3ccccc3s2)c(O)c1)C1=COCCO1 |  | inconclusive: 79.4 µM [inhibitor, single point] |
| COc1ccc(N=c2nc(-c3ccc(C)cc3)n(-c3ccccc3)s2)cc1 | inactive: -12.1% |  |
| Cc1ccc(S(=O)(=O)Oc2cccc(/C=N/n3cnnc3)c2)cc1 |  | inconclusive: 79.4 µM [inhibitor, single point] |

| SMILES | max response, negative = inhibition | Potency |
| --- | --- | --- |
| CCOc1ccccc1NC(=O)Cn1cnc2c1c(=O)n(C)c(=O)n2C | inactive: -2.17% |  |
| COc1cc(C2NC(=O)C(C#N)=C(S)N2c2ccc(C)cc2)ccc1OC(C)C (configuration not stated) |  | active: 28.2 µM |
| O=S(=O)(N/N=C\c1c(F)cccc1Cl)c1ccc(Cl)cc1 |  | inconclusive: 35.5 µM [inhibitor, full curve, poor fit] |
| CC(C)C(=O)Nc1nc2c(ncn2[C@H]2CC(O)[C@@H](CO)O2)c(=O)[nH]1 (some centres not stated) |  | inconclusive: 1.78 µM [inhibitor, partial curve, poor fit] |
| COC(=O)c1ccccc1-c1ccc(C(c2c(C)[nH][nH]c2=O)c2c(C)[nH][nH]c2=O)o1 |  | inconclusive: 89.1 µM [inhibitor, single point] |
| Cc1sc(C(C2C(=O)CC(C)(C)CC2=O)C2C(=O)CC(C)(C)CC2=O)cc1[N+](=O)[O-] |  | inconclusive: 8.91 µM [inhibitor, full curve, poor fit] |
| CC(C)(C)c1cc[n+](-c2[nH]c(=O)sc2/C=N/NC([S-])=Nc2ccccc2)cc1 |  | inconclusive: 39.8 µM [inhibitor, single point] |
| O=C(NN1C(=O)CSC1=S)C(=O)NN1C(=O)CSC1=S | inactive: 9.17% |  |
| CCOc1ccc(N(CC(=O)NC2CCCCC2)S(=O)(=O)c2c(C)noc2C)cc1 |  | inconclusive: 79.4 µM [inhibitor, partial curve, poor fit] |
| CC(=O)c1c(CC(=O)O)[nH]n(-c2nc3ccccc3s2)c1=O |  | inconclusive: 79.4 µM [inhibitor, partial curve, poor fit] |
| C=CCNc1nc(C(=O)OCC(=O)c2ccc(C)c([N+](=O)[O-])c2)cs1 | inactive: -26.9% |  |
| CCC(Sc1nc2ccccc2c2nc(CCn3cncc3C)nn12)C(=O)Nc1cccc(OC)c1 (configuration not stated) | inactive: 10.6% |  |
| Cc1ccc(C)c(NC(=O)c2cc(S(=O)(=O)N3CCCCC3)ccc2N2CCOCC2)c1 | inactive: -8.83% |  |
| O=C(N/N=C/c1cc2ccccc2nc1Cl)/C(=C/c1cccs1)NC(=O)c1ccccc1 | inactive: 4.51% |  |
| CC(=O)N1c2c(cc(Br)cc2S(=O)(=O)N2CCN(C(=O)c3ccco3)CC2)CC1C (configuration not stated) |  | inconclusive: 25.1 µM [inhibitor, single point] |
| C=CCn1c(-c2ccc(Cl)cc2)cnc1SC(C)C(N)=O (configuration not stated) | inactive: -14.9% |  |
| O=C(NNC(=S)Nc1cccc(C(F)(F)F)c1)c1ccccc1Cl |  | inconclusive: 89.1 µM [inhibitor, partial curve, poor fit] |
| Oc1c(N=Nc2ccc(F)cc2)ccc2ccccc12 |  | inconclusive: 35.5 µM [inhibitor, single point] |
| COCCCN1C(=O)C(=O)/C(=C(/O)c2ccc(S(=O)(=O)N3CCCCC3)cc2)C1c1ccc(O)c(OC)c1 (configuration not stated) | inactive: -1.58% |  |
| CC(C)S(=O)(=O)c1oc(-c2ccc(F)cc2)nc1S(=O)(=O)c1ccccc1 |  | inconclusive: 25.1 µM [inhibitor, partial curve, poor fit] |
| Cc1cccn2c(=O)c(C(=O)NCc3ccccc3Cl)c(O)nc12 | inactive: -4.64% |  |
| Cc1ccc(C)c(N2CCN(S(=O)(=O)c3ccc4c(c3)C(C)(C)C(=O)N4C)CC2)c1 | inactive: -16.9% |  |
| COc1ccc(C2(C(=O)c3ccccc3)C(=O)c3ccccc3C2=O)cc1 |  | inconclusive: 89.1 µM [inhibitor, partial curve, poor fit] |

Looked up above:
max response, negative = inhibition with `O=C(NN1C(=O)CSC1=S)C(=O)NN1C(=O)CSC1=S` is entered as inactive: 9.17%
Potency with `CC(C)(C)c1cc[n+](-c2[nH]c(=O)sc2/C=N/NC([S-])=Nc2ccccc2)cc1` is entered as inconclusive: 39.8 µM [inhibitor, single point]
max response, negative = inhibition with `O=C(N/N=C/c1cc2ccccc2nc1Cl)/C(=C/c1cccs1)NC(=O)c1ccccc1` is entered as inactive: 4.51%

More records follow.

| SMILES | max response, negative = inhibition | Potency |
| --- | --- | --- |
| c1ccc(Nc2nc(-c3cccnc3)nc3ccccc23)cc1 |  | inconclusive: 35.5 µM [inhibitor, partial curve, poor fit] |
| O=C(Cc1cccc(NC(=O)C2CCN(C(=O)C3CCCCC3)CC2)c1)Nc1cccc(C(=O)N2CCCCC2)c1 | inactive: -10.5% |  |
| CCCS(=O)(=O)n1nc(-c2ccc(OC)cc2)cc1N |  | inconclusive: 3.98 µM [inhibitor, partial curve, poor fit] |
| O=C(Nc1cccc([N+](=O)[O-])c1)c1ccc2nc(N3C(=O)CCC3=O)sc2c1 | inactive: 5.45% |  |
| CCNc1nc(NCC)nc(SCCOc2ccc(C)cc2)n1 |  | inconclusive: 35.5 µM [inhibitor, single point] |
| NC(=O)C1CC(=O)N(c2ccc(OCc3ccc(Cl)cc3)cc2)C1 (configuration not stated) |  | inconclusive: 35.5 µM [inhibitor, single point] |
| CN(C)c1ccc(-c2nccc(Nc3ccc(F)cc3)n2)cc1 |  | inconclusive: 50.1 µM [inhibitor, partial curve] |
| O=C1CS(=O)(=O)N(Cc2ccccc2F)c2ccc(Br)cc21 |  | inconclusive: 89.1 µM [inhibitor, single point] |
| CC(C)(C)c1cc(C(=O)N/N=C/c2ccc(-c3ccccc3[N+](=O)[O-])o2)n[nH]1 |  | inconclusive: 89.1 µM [inhibitor, single point] |
| COCCOC(=O)C1=C(C)NC2=C(C(=O)CCC2)C1c1ccc(N(C)C)cc1 (configuration not stated) | inactive: -0.803% |  |
| Cc1c(OC(C)C(=O)N[C@H](C(=O)O)c2ccccc2)ccc2c3c(c(=O)oc12)CCCC3 (some centres not stated) |  | inconclusive: 89.1 µM [inhibitor, partial curve, poor fit] |
| Cn1ccnc1Sc1cc(NCCCO)c([N+](=O)[O-])c2nonc12 |  | active: 20 µM |
| COc1ccc(CCNC(=O)CCCCn2c(=O)c3ccccc3n(CC(=O)Nc3ccc(C)cc3C)c2=O)cc1OC |  | inconclusive: 89.1 µM [inhibitor, single point] |
| COc1ccc(OC)c(C(C[N+](=O)[O-])c2c(C)cc3ccccn23)c1 (configuration not stated) | inactive: -25.5% |  |
| O=C(/C=C/c1ccc([N+](=O)[O-])cc1)NCCc1ccccc1 |  | inconclusive: 8.91 µM [inhibitor, partial curve, poor fit] |
| O=C(Cc1n[nH]c(=O)c2ccccc12)OCC(=O)N(Cc1ccccc1)Cc1ccccc1 |  | inconclusive: 89.1 µM [inhibitor, partial curve, poor fit] |
| C/C(=N\Nc1cc(Cl)nc(C)n1)c1ccccc1 | inactive: -4.58% |  |
| COc1ccc(C2=NS(=O)(=O)N(C)C(C(=O)Nc3cc(C)ccc3O)=C2)cc1OC | inactive: 3.14% and inactive: -4.16% |  |
| CCc1cccc(C)c1NC(=O)C1CCCN1C(=O)NCc1ccccc1 (configuration not stated) |  | inconclusive: 79.4 µM [inhibitor, single point] |
| COc1ccc2c(CCNC(N)=S)c[nH]c2c1 |  | inconclusive: 35.5 µM [inhibitor, single point] |
| CC(C)(O)c1ccccc1CC[C@H](SCC1(CC(=O)O)CC1)c1cccc(/C=C/c2ccc3ccc(Cl)cc3n2)c1 |  | inconclusive: 50.1 µM [inhibitor, partial curve, poor fit] |
